Data reported in article PMC9612522.
These are yes or no findings as the source states them, for the method shown. Binding seen in cells or lysates may run through a third protein. Some entries that bind do so weakly or less than the wild type. Where a sequence is shown, tags or fusion partners need not be part of it.

By UniProt entry, the sequences of proteins in these tests, tags left out.
UniProt O96013: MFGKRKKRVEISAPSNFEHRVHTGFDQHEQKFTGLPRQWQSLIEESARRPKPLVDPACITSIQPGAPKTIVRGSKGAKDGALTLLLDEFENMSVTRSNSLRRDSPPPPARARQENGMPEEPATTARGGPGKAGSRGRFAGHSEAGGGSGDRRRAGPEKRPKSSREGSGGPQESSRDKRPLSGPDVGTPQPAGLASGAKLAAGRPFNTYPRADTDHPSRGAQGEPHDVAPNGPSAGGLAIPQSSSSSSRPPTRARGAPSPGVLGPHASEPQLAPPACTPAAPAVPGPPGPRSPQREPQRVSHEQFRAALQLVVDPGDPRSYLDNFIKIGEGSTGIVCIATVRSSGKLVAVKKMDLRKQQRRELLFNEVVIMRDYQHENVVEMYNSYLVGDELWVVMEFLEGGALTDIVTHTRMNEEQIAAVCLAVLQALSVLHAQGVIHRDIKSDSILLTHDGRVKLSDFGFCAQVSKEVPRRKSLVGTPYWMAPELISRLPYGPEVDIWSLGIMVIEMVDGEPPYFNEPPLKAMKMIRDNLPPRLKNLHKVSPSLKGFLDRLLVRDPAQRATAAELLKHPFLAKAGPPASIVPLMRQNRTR

Target: Flag-Pak4 (UniProt O96013)
Experiment: co-IP; HEK293T cells (the legend says HEK293) co-expressing Flag-Pak4 and EGFP fusions; IP with anti-GFP or anti-Flag, immunoblot with anti-GFP or anti-Flag; lysis in 50 mM Tris-HCl pH 7.5, 150 mM NaCl, 2 mM EDTA, 1% NP-40, 4°C

Row | binding | Binder
1 | binds | EGFP-Inka1 (protein, UniProt Q9CX62 1-282) MHSARLDSFLSQLRWELLCARDTGSPPMSGPLQPKPRTDQNVQPKRQFRASDVLEEDSVCCVEEEEEEGLVAEDKGLPLGCPREHALDWDSGFSEVSGSTWREEEPSVPQRQAPRERPPHSQRFSVSDIPMRSRAAVTNIPPAHRPRPKSTPDACLEHWQGLEAEDWTAALLNRGRSRQPLVLGDNCFADLVHNWMELPEATSEGSDGDVPRARARPPQFLLGLSEQLRRRLARARRTAMASKRLSCPPRSEPDLPADISRFAALMNCRSRQPIIYNDVSYL
2 | binds | EGFP-Inka2 (protein, UniProt Q80VY2-2 1-281) MSMKEVGDGLQDQMNCMMGALQELKLLQVQTALEQLEISGGTPTFSCPESSQEQPECPRWQGSGGPAGPAAWTSSSQPSFDSSPKLPCRRSVCGKELAVLPKTQLPEEHQSCTQQGTEWVEPDDWTSTLMSRGRNRQPLVLGDNVFADLVGNWLDLPELEKGGEKGETGGSIEPKGEKGQSRELGRKFALTANIFRKFLRSVRPDRDRLLKEKPGWMTPMVSESRAGRSKKVKKRSLSKGSGRFPFSSTGEPRHIETPATSSPKALEPSCRGFDINTAVWV
